# Measured values: PubChem BioAssay AID504834 (National Center for Advancing Translational Sciences (NCATS), 2011)
# Several values for one entry are separate records, joined by “and”; a condition that tells them apart may be missing. Equal entries are not always repeated. Among all 320,000 compounds or so, about 22,000 (6.9%) were called active. The shares of active, inactive and inconclusive entries below differ from those in the screen. The call rests on the fitted dose curve; in most records, active means well fitted inhibition curve with a large enough effect; inconclusive means small, poorly fitted or top-dose-only effect, or another doubt; inactive means no such curve, though single readings can be large or run the other way. A potency beside an inconclusive call is a rough fit, not a confirmed value.
# Assay: Primary qHTS for delayed death inhibitors of the malarial parasite plastid, 96 hour incubation
# Conditions: P. falciparum luciferase reporter growth; series mostly up to 28.7 µM
# Summary of the method: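 Delayed-death screen, second-generation endpoint: infected erythrocytes, 2% hematocrit, 0.05% parasitemia final; 96 hours at 37 C, 5% CO2; luciferase detection reagent; luminescence decrease equals reduced growth.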
# Potency means the concentration at half of the fitted maximal effect.
row,Structure (SMILES),Potency
1,CC(C)(C)c1cc(C(=O)NNC(=O)Nc2ccccc2)n(Cc2ccccc2)n1,active: 9.28 µM
2,O=C(CN1CCN(S(=O)(=O)c2ccccc2F)CC1)NCC1(N2CCOCC2)CCCCC1,"inconclusive: 13.1 µM [inhibitor, single point]"
3,C=CCN1C(=O)c2ccc(C(=O)N3CCC(C(=O)OCC)CC3)cc2C1=O,inactive
4,CCCCn1c(N)c(N(CCC(C)C)C(=O)c2oc3ccc(OCC)cc3c2C)c(=O)[nH]c1=O,"inconclusive: 18.5 µM [inhibitor, single point]"
5,CCOC(=O)c1cc(NC(=O)C2C3CCC(O3)C2C(=O)O)cc(C(=O)OCC)c1 (stereo not given),"inconclusive: 8.28 µM [inhibitor, partial curve]"
6,Cc1nnc(SCC(=O)Nc2cccc(S(=O)(=O)NC3=NCCCCC3)c2)n1Cc1ccccc1,inactive
7,O=C(N/N=C/c1ccccc1O)c1ccncc1,active: 4.26 µM and active: 11.7 µM
8,O=C(Nc1ccccc1)OCCNC(=O)c1cccc(Br)c1,inactive
9,Cn1cccc1-c1cc(C(=O)N/N=C/c2cccc(O)c2)[nH]n1,"inconclusive: 14.7 µM [inhibitor, partial curve, poor fit]"
10,Cc1nc2nc(-c3cccnc3)nn2c(C)c1Cl,inactive
11,O=C(c1cc2c(=O)oc3ccccc3c2s1)N1CCOCC1,"inconclusive: 10.4 µM [inhibitor, single point]"
12,COc1ccc(C2CC(c3ccccc3)=NN2C(=O)CSc2ncn[nH]2)cc1 (stereo not given),"inconclusive: 10.4 µM [inhibitor, single point]"
13,CCN(CC)S(=O)(=O)c1ccc(S(=O)(=O)NCC2CCCO2)cc1 (stereo not given),"inconclusive: 9.28 µM [inhibitor, partial curve, poor fit]"
14,Cc1ccc(NC(=O)CSc2nnc(-c3ccc(S(=O)(=O)N4CCCC4)cc3)o2)cc1C,inactive
15,COc1ccccc1N1CCN(Cc2cccc(Br)c2)CC1,"inconclusive: 10.4 µM [inhibitor, partial curve, poor fit]"
16,Cc1cccc2[nH]c3c(N4CCC5(CC4)OCCO5)ncnc3c12,"inconclusive: 11.7 µM [inhibitor, partial curve, poor fit]"
17,COc1ccc(-n2nnc3c(=O)n(Cc4ccccc4C)cnc32)cc1,"inconclusive: 4.15 µM [inhibitor, single point]"
18,CCc1cc(=O)[nH]c(SCC(=O)NCc2ccc3c(c2)OCO3)n1,inactive
19,CCN1CCN(c2nnc(-c3ccccc3)c3ccccc23)CC1,"inconclusive: 10.4 µM [inhibitor, partial curve]"
20,CC(C)(C)N(NC(=O)Nc1ccc(Cl)c(Cl)c1)C(=O)c1ccccc1,"inconclusive: 10.4 µM [inhibitor, single point]"
21,O=C(CSc1nnc(Cn2nnc(-c3ccccc3)n2)n1-c1ccccc1)Nc1ccccc1,"inconclusive: 10.4 µM [inhibitor, partial curve, poor fit]"
22,Cc1cc2c(cc1C)NC1=C(N2)OC(c2cccc(O)c2)C1=O (stereo not given),inactive
23,N#CC1(NC(=O)COC(=O)c2cccc(-n3cnnn3)c2)CCCCC1,inactive
24,CCOC(=O)c1[nH]c2ccccc2c1NC(=O)CN1CCCCC1,"inconclusive: 10.4 µM [inhibitor, single point]"

row,Structure (SMILES),Potency
1,CCOC(=O)c1sc(=S)n(-c2cccc(C(F)(F)F)c2)c1SC,"inconclusive: 0.0029 µM [inhibitor, full curve, poor fit]"
2,COc1cccc(NC(=O)CN(C)CC(=O)Nc2cccc(C(F)(F)F)c2)c1,inactive
3,COc1ccc(/C=C(\NC(=O)c2ccco2)C(=O)N2CCOCC2)cc1,inactive
4,O=C(NC(=S)Nc1ccc(Cl)cn1)C(c1ccccc1)c1ccccc1,inactive
5,COc1ccc(C2c3c(ncn(CCCO)c3=N)Oc3ccc4ccccc4c32)cc1OC (stereo not given),active: 1.65 µM
6,COc1ccc(CN(CC(=O)NC2CCCCC2)C(=O)CCC(=O)Nc2nccs2)cc1,"inconclusive: 9.28 µM [inhibitor, single point]"
7,Cc1cc(C)c2nc(NNC(=O)c3cc(-c4cccs4)nc4ccccc34)sc2c1,active: 3.29 µM
8,COc1ccc(Cl)cc1NC(=O)COC(=O)CCCC1=NS(=O)(=O)c2ccccc2N1,"inconclusive: 4.65 µM [inhibitor, partial curve]"
9,COc1ccc(C(C[N+](=O)[O-])c2c(C)[nH]n(-c3ccccc3)c2=O)cc1 (stereo not given),inactive
10,Cc1cc(N/N=C/c2cccc(Cl)c2)nc(-n2nc(C)cc2C)n1,"inconclusive: 0.329 µM [inhibitor, full curve, poor fit]"
11,O=C(c1cc(-c2ccc(O)cc2)on1)N1CCN(c2ccc(F)cc2)CC1,inactive
12,Cc1ccccc1C(=O)/C=C1/c2ccccc2CC(C)(C)N1C,"inconclusive: 4.15 µM [inhibitor, partial curve, poor fit]"
13,Cc1c(Cl)c([N+](=O)[O-])nn1CC(=O)NCc1cccs1,"inconclusive: 18.5 µM [inhibitor, partial curve, poor fit]"
14,NC(=O)COC(=O)CN1C(=O)C2CCCCC2C1=O (stereo not given),"inconclusive: 14.7 µM [inhibitor, partial curve, poor fit]"
15,CC(C)(C)NC(=O)C(=O)NNC(=O)C12CC3CC(CC(C3)C1)C2,"inconclusive: 0.0029 µM [inhibitor, full curve, poor fit]"
16,CCOC(=O)Cc1ccc(NCc2ccc(Cl)cc2)cc1,"inconclusive: 18.5 µM [inhibitor, single point]"
17,CCN1CCN(CCNC(=O)c2ccc(CS(=O)c3ccc(Br)cc3)o2)CC1 (stereo not given),inactive
18,COc1ccccc1OCC(=O)Nc1nnc(C2CCCC2)s1,inactive
19,COCCCNC(=O)/C(C#N)=C/c1c(N2CCN(c3ccc(OC)cc3)CC2)nc2c(C)cccn2c1=O,"inconclusive: 11.7 µM [inhibitor, partial curve, poor fit]"
20,CC(=O)c1cccc(Nc2nc(-c3sc(N)nc3C)cs2)c1,active: 16.5 µM
21,O=C(Nc1ccccc1)N1CCc2c([nH]c3ccccc23)C1C(F)(F)F (stereo not given),"inconclusive: 13.1 µM [inhibitor, single point]"
22,CCOC(=O)Cc1csc(NC(=O)c2cc(C)cc(C)c2)n1,"inconclusive: 18.5 µM [inhibitor, single point]"
23,CCc1cc(C(=O)NCC(C)(C)N2CCOCC2)sc1C,inactive
24,CC(=O)NCc1ccc2[nH]c(C)cc2c1,inactive

row,Structure (SMILES),Potency
1,CCn1c(-c2ccc3[nH]c(C)c(C)c3c2)n[nH]c1=S,inactive
2,CCC1C(c2ccccc2)N(C)C(c2ccccc2)CC1(O)c1ccccc1 (stereo not given),inactive
3,N#C/C(=C/c1ccc(CNC(=O)C(=O)Nc2cc(Cl)cc(Cl)c2)o1)C(=O)NCc1cccnc1,inactive
4,O=C1CN(C(=O)CSc2nc3cc(Cl)ccc3c(=O)n2Cc2ccccc2)c2ccccc2N1,"inconclusive: 2.08 µM [inhibitor, full curve]"
5,CCN(CC(=O)NCCCn1ccnc1)S(=O)(=O)c1ccc(C)cc1,"inconclusive: 11.7 µM [inhibitor, partial curve]"
6,O=C1CSC(c2cn(-c3ccccc3)nc2-c2cc3ccccc3o2)N1Cc1ccccc1 (stereo not given),active: 4.15 µM
7,COc1ccc(-c2cc(C(F)F)n3ncc(C(=O)Nc4cccc(S(=O)(=O)N5CCOCC5)c4)c3n2)cc1,"inconclusive: 1.17 µM [inhibitor, full curve, poor fit]"
8,Cc1ccc(NC(=S)N(CCCN2CCOCC2)Cc2ccco2)cc1Cl,"inconclusive: 8.28 µM [inhibitor, partial curve, poor fit]"
9,COc1ccccc1N(C(=O)c1ccncc1)c1nc(-c2ccc([N+](=O)[O-])cc2)cs1,"inconclusive: 4.15 µM [inhibitor, partial curve, poor fit]"
10,CCOC(=O)N1CCN(C(=O)C2CCC(CNS(=O)(=O)c3ccc(Cl)cc3)CC2)CC1 (stereo not given),"inconclusive: 2.94 µM [inhibitor, partial curve]"
11,Cc1ccc(C(=O)OCC(=O)NCc2cccc(Cl)c2)cc1S(=O)(=O)N1CCCCC1,inactive
12,COC(=O)c1ccc(Sc2nnnn2-c2ccccc2)c([N+](=O)[O-])c1,"inconclusive: 20.8 µM [inhibitor, single point]"
13,O=C(Nc1ccc(F)c(F)c1)C1CCCCC1,inactive
14,CC/C(=N\NC(=O)c1ccccc1Cl)c1c(O)n(C2CCCCC2)c(=O)[nH]c1=O,"inconclusive: 11.7 µM [inhibitor, partial curve, poor fit]"
15,CC(C)(C)NC(=O)C12CCC(C)(c3nc4ccccc4nc31)C2(C)C (stereo not given),"inconclusive: 14.7 µM [inhibitor, partial curve, poor fit]"
16,O=C(CN1CCCCCCC1)N/N=C/c1ccc(F)cc1F,"inconclusive: 18.5 µM [inhibitor, single point]"
17,COC(=O)c1ccc(CSc2nnc3sc4ccccc4n23)o1,"inconclusive: 18.5 µM [inhibitor, single point]"
18,NC(=O)c1cc(S(=O)(=O)N2CC=C(c3ccccc3)CC2)cs1,inactive
19,COC(=O)c1c(NC(NC(=O)C(C)C)C(Cl)(Cl)Cl)sc2c1CCCC2 (stereo not given),"inconclusive: 18.5 µM [inhibitor, single point]"
20,COCC1CCN(C(=O)C2CCC(=O)N(CCc3cccc(F)c3)C2)CC1 (stereo not given),inactive
21,COc1ccc(N=C2C(=Nc3ccc(OC)cc3)N(c3ccc(OC)cc3)C(=S)N2C(=O)c2ccc(OC)cc2)cc1,inactive
22,COc1ccccc1NC(=O)CN1CCC(n2nnc3cc(F)ccc32)CC1,"inconclusive: 20.8 µM [inhibitor, single point]"

# 4 entries drawn at random from the list so far, as already listed:
row,Structure (SMILES),Potency
22,COc1ccccc1NC(=O)CN1CCC(n2nnc3cc(F)ccc32)CC1,"inconclusive: 20.8 µM [inhibitor, single point]"
17,COC(=O)c1ccc(CSc2nnc3sc4ccccc4n23)o1,"inconclusive: 18.5 µM [inhibitor, single point]"
1,CCn1c(-c2ccc3[nH]c(C)c(C)c3c2)n[nH]c1=S,inactive
10,CCOC(=O)N1CCN(C(=O)C2CCC(CNS(=O)(=O)c3ccc(Cl)cc3)CC2)CC1 (stereo not given),"inconclusive: 2.94 µM [inhibitor, partial curve]"
